Measured data: PubChem BioAssay AID743456 (Peter MacCallum Cancer Centre, 2014)
In all, the deposit lists 878 reagents; below is an unselected part. 27 of all reagents (3.1%) count as active. 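27 mimics are marked active, unlike an earlier stated count of 24; the viability threshold is described inconsistently.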 Not stated in the record: the amount of reagent.

- Purpose: 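miRNA mimics altering how resistant colon cancer cells respond to vorinostat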 (primary screen)
- System: human HCT116-VR colon cancer cells, a vorinostat-resistant HCT116 line
- Reagents: miRNA mimic
- Time to read-out: about 3 days from transfection to readout; drug present for the last 24 h
- Conditions: vorinostat at 2.5 µM final for 24 h
- Detection: 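Cell viability from CellTiter-Fluor signal and caspase activity from luminescence after 24 h vorinostat at 2.5 µM, given as robust z-scores and as ratios to mock-transfected wells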
- Scale: viability robust z-score and viability vs mock transfection: higher = more viable cells; caspase robust z-score: higher = more caspase activity, more apoptosis
- Hit rule: 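a mimic counts as active if it lands in a lowered-viability class or a caspase-activation class; wells with too few cells without drug are left out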

miRNA | viability robust z-score | caspase robust z-score | viability hit class | caspase hit class | viability vs mock transfection | Call
hsa-let-7a-2* | -0.6 | 2.8 | no change | no change | 0.64 | inactive
hsa-miR-935 | -0.54 | -0.34 | no change | no change | 0.7 | inactive
hsa-miR-185 | -1.68 | 2.46 | no change | no change | 0.44 | inactive
hsa-miR-1202 | 0.25 | -0.55 | no change | no change | 0.82 | inactive
hsa-miR-885-3p | -1.16 | 3.7 | no change | no change | 0.54 | inactive
hsa-miR-433 | -0.42 | 0.66 | no change | no change | 0.72 | inactive
hsa-miR-29b-2* | -0.52 | 2.38 | no change | no change | 0.66 | inactive
hsa-miR-205* | -1.09 | -0.35 | no change | no change | 0.55 | inactive
hsa-miR-548j | -0.44 | 0.51 | no change | no change | 0.67 | inactive
hsa-miR-150 | 0.6 | -0.9 | no change | no change | 0.88 | inactive
hsa-miR-610 | -0.76 | 3.66 | no change | no change | 0.61 | inactive
hsa-miR-548a-5p | 0.38 | -0.58 | no change | no change | 0.82 | inactive
hsa-miR-28-5p | -2.74 | -0.23 | no change | no change | 0.38 | inactive
hsa-miR-323-3p | -0.88 | 0.84 | no change | no change | 0.64 | inactive
hsa-miR-335* | -0.43 | -0.3 | no change | no change | 0.72 | inactive
hsa-miR-495 | 0.56 | -0.3 | no change | no change | 0.88 | inactive
hsa-miR-1285 | -0.82 | 0.12 | no change | no change | 0.6 | inactive
hsa-miR-493 | -2.1 | 4.54 | no change | no change | 0.44 | inactive
hsa-miR-423-5p | -1.01 | 2.57 | no change | no change | 0.64 | inactive
hsa-miR-182 | -0.12 | 0.12 | no change | no change | 0.73 | inactive
hsa-miR-662 | 0.42 | -0.84 | no change | no change | 0.86 | inactive
hsa-miR-184 | 0.19 | 1.18 | no change | no change | 0.82 | inactive
hsa-miR-518d-5p | 0.97 | 1.22 | no change | no change | 0.95 | inactive
hsa-miR-153 | -0.66 | 4.27 | no change | no change | 0.68 | inactive
hsa-miR-377 | 0.06 | -0.27 | no change | no change | 0.76 | inactive
hsa-miR-708* | 0.82 | 0.52 | no change | no change | 0.92 | inactive
hsa-miR-599 | 0.79 | -0.25 | no change | no change | 0.92 | inactive
hsa-miR-2113 | -0.86 | 0.2 | no change | no change | 0.64 | inactive
hsa-miR-298 | -1.02 | 3.84 | no change | no change | 0.62 | inactive
hsa-miR-1250 | -2.51 | 1.29 | no change | no change | 0.37 | inactive
hsa-miR-302a* | 1.02 | -0.68 | no change | no change | 0.96 | inactive
hsa-miR-18b* | 0.45 | 0.03 | no change | no change | 0.83 | inactive

A few values from the entries so far:
Value for hsa-miR-335* in “caspase robust z-score”: -0.3
Under “viability vs mock transfection”, hsa-miR-885-3p is entered as 0.54
hsa-miR-662, Call: inactive

More entries follow.
miRNA | viability robust z-score | caspase robust z-score | viability hit class | caspase hit class | viability vs mock transfection | Call
hsa-miR-502-3p | -1.15 | 0.32 | no change | no change | 0.54 | inactive
hsa-miR-588 | 0.83 | 0.1 | no change | no change | 0.9 | inactive
hsa-miR-1307 | -0.57 | 0.52 | no change | no change | 0.65 | inactive
hsa-miR-1237 | 0.25 | 1.31 | no change | no change | 0.84 | inactive
hsa-miR-27a | -1.2 | -0.03 | no change | no change | 0.6 | inactive
hsa-miR-1178 | -1.03 | 1.27 | no change | no change | 0.56 | inactive
hsa-miR-218 | 1.88 | -0.43 | no change | no change | 1.1 | inactive
hsa-miR-889 | 0.12 | -0.72 | no change | no change | 0.82 | inactive
hsa-miR-29a* | 1.63 | -0.72 | no change | no change | 1.04 | inactive
hsa-miR-664* | 0.11 | 0.78 | no change | no change | 0.77 | inactive
hsa-miR-609 | -0.97 | 1.19 | no change | no change | 0.57 | inactive
hsa-miR-564 | -0.96 | -0.7 | no change | no change | 0.64 | inactive
hsa-miR-888 | 0.52 | -0.76 | no change | no change | 0.84 | inactive
hsa-miR-553 | 1.25 | -0.83 | no change | no change | 1 | inactive
hsa-miR-573 | -0.18 | 0.69 | no change | no change | 0.77 | inactive
hsa-miR-886-3p | -1.36 | 1.85 | no change | no change | 0.56 | inactive
hsa-miR-34c-5p | -2.4 | 4.63 | no change | caspase activation | 0.38 | active
hsa-miR-1185 | -0.24 | 0.54 | no change | no change | 0.76 | inactive
